Results deposited as PubChem BioAssay AID504786 (Drosophila RNAi Screening Center, 2011).
The screen tested about 21,000 reagents; below is a random part of those that have a named target and a result. 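Primary screen; positive scores mean lost reporter signal, so the sign may be inverted from the usual convention.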 A plus sign joins genes that one reagent is predicted to hit.

Screen: 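Knock-downs reducing HIF reporter induction by the iron chelator DFO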 (primary screen)
Cell system: Drosophila S2 cells with a stable HIF luciferase reporter
Reagent: long dsRNA against Drosophila genes, about 0.2 µg dsRNA per well of a 384-well plate
Timing: three days of knock-down, then 20 h of DFO before reading
Challenge: desferrioxamine (DFO) at 100 µM, an iron chelator that mimics hypoxia, for 20 h
Detection: 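HIF reporter luminescence in cells given 100 µM DFO for 20 h, using the mouse ldh-a hypoxia-response element, scored as per-plate z-scores; higher means greater loss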
Reading the numbers: z-score: higher = stronger loss of HIF reporter signal

no.	target gene	dsRNA	z-score, replicate 1	z-score, replicate 2	z-score, replicate 3	z-score, replicate 4
1	Nlp (Nucleoplasmin)	DRSC16759	-0.4	-1		
2	Ccm3 (Cerebral cavernous malformation 3)	DRSC15711	0.4	0.1		
3	Rad60	DRSC15580	-0.2	-0.5		
4	CG5928	DRSC18391	-0.3	0	0.1	-0.3
5	SmydA-7 (SET and MYND domain containing, arthropod-specific, member 7)	DRSC07340	-0.2	-0.2		
6	Gr97a (Gustatory receptor 97a)	DRSC13802	0.1	1		
7	Lrch (Leucine-rich-repeats and calponin homology domain protein)	DRSC02996	0	0		
8	Ddx1 (Dead-box-1)	DRSC11862	-0.3	-0.4		
9	l(2)34Fd (lethal (2) 34Fd)	DRSC01911	-0.2	0.9		
10	CG2129	DRSC18209	0	0.3		
11	CG7402	DRSC10839	-0.2	1.3		
12	Fign (Fidgetin)	DRSC00592	-0.3	-0.3		
13	scu (scully)	DRSC20369	-0.4	0		
14	Vajk4	DRSC06589	0	0.9		
15	Vajk4	DRSC07003	-0.4	-0.4		
16	ppk13 (pickpocket 13)	DRSC02382	-0.3	-0.4		
17	CG34330	DRSC20043	0.1	0.7		
18	PSMG1 (Proteasome assembly chaperone 1)	DRSC12297	-0.4	-0.5		
19	CG8997	DRSC01900	-0.3	-0.4		
20	CG9021	DRSC03128	-0.4	-0.5		
21	CG7881	DRSC04898	-0.2	0.4		
22	CG31010	DRSC14006	-0.1	-0.3		
23	CG14694	DRSC14917	-0.4	-0.4		
24	vig (vasa intronic gene)	DRSC03630	-0.3	-0.2	-0.2	-0.1
25	vig (vasa intronic gene)	DRSC03631	-0.4	-0.1		
26	Agxt (Alanine-glyoxylate aminotransferase)	DRSC18718	-0.3	0.1		
27	CG4198	DRSC18354	-0.3	-0.4		
28	dpa (disc proliferation abnormal)	DRSC07604	-0.1	-0.2		
29	Optix	DRSC05078	-0.3	0.2	-0.3	-0.3
30	Optix	DRSC07484	-0.3	-0.4		
31	ppk6 (pickpocket 6)	DRSC06062	-0.1	0.1		
32	CG32440	DRSC11480	0.1	-0.1		
33	CG9135	DRSC03144	-0.1	-0.1		
34	CG17475	DRSC15238	-0.4	-0.3		
35	mRpS34 (mitochondrial ribosomal protein S34)	DRSC09918	0.3	0.2		
36	glu (gluon)	DRSC03539	-0.4	0		
37	CG3078	DRSC18531	-0.3	-1		
38	CG12115	DRSC17811	-0.2	0.9		
39	CG9521	DRSC20196	-0.3	-0.6		
40	Adgf-E (Adenosine deaminase-related growth factor E)	DRSC05973	-0.2	-0.5		
41	CG14564	DRSC11725	-0.3	-0.3		
42	Gr58a (Gustatory receptor 58a)	DRSC03910	0.4	-0.1		
43	loqs (loquacious)	DRSC02997	-0.3	-0.4		

The list goes on; the last 10 above are carried over.
no.	target gene	dsRNA	z-score, replicate 1	z-score, replicate 2	z-score, replicate 3	z-score, replicate 4
34	CG17475	DRSC15238	-0.4	-0.3		
35	mRpS34 (mitochondrial ribosomal protein S34)	DRSC09918	0.3	0.2		
36	glu (gluon)	DRSC03539	-0.4	0		
37	CG3078	DRSC18531	-0.3	-1		
38	CG12115	DRSC17811	-0.2	0.9		
39	CG9521	DRSC20196	-0.3	-0.6		
40	Adgf-E (Adenosine deaminase-related growth factor E)	DRSC05973	-0.2	-0.5		
41	CG14564	DRSC11725	-0.3	-0.3		
42	Gr58a (Gustatory receptor 58a)	DRSC03910	0.4	-0.1		
43	loqs (loquacious)	DRSC02997	-0.3	-0.4		
44	CG7099	DRSC03006	-0.3	-0.3		
45	aust (australin)	DRSC02558	-0.3	-0.5		
46	CG12239	DRSC17832	-0.5	-0.7		
47	holn1 (hole-in-one)	DRSC02827	-0.3	-0.8		
48	CG34171	DRSC01637	0	0.6		
49	p38b (p38b MAP kinase)	DRSC03586	0.3	-0.6		
50	GstE4 (Glutathione S transferase E4)	DRSC06674	-0.3	-0.6		
51	Obp18a (Odorant-binding protein 18a)	DRSC19736	-0.3	-0.4		
52	whd (withered)	DRSC07351	-0.4	-0.4		
53	CG31223	DRSC15115	-0.1	0.7		
54	ADD1 (ADD domain-containing protein 1)	DRSC07135	-0.3	-0.3		
55	CG34161	DRSC01132	-0.3	-0.4		
56	Mps1 (Monopolar spindle 1)	DRSC16273	-0.1	-0.1		
57	Patronin	DRSC06756	-0.2	-0.4		
58	Patronin	DRSC06757	0.2	-0.1		
59	Patronin	DRSC06994	0	0.1		
60	peo (pendolino)	DRSC05995	-0.4	-0.4		
61	Tmem214 (Transmembrane protein 214)	DRSC02924	0.7	0.1		
62	Tmem214 (Transmembrane protein 214)	DRSC02925	-0.2	-0.4		
63	CG1835	DRSC20560	-0.3	-0.5		
64	Adgf-A2 (Adenosine deaminase-related growth factor A2)	DRSC09507	-0.1	0.3		
65	CG9812	DRSC04566	-0.3	-0.4		
66	mrva (minerva)	DRSC11009	-0.3	-0.4	-0.4	-0.3
67	CG12516	DRSC14524	-0.5	-0.3		
68	CG15170	DRSC02471	-0.3	-0.5		
69	Sec61gamma (Sec61 gamma subunit)	DRSC19570	2.4	1.8		
70	CG30496	DRSC06805	-0.3	0.1		
71	kug (kugelei)	DRSC10911	-0.3	-0.5		
72	Pal1 + Pdrg1	DRSC06587	-0.3	-0.1		
73	mthl11 (methuselah-like 11)	DRSC12779	0	-0.2		
74	CG13028	DRSC09908	-0.3	0.5		
75	CG15708	DRSC06579	-0.2	0.3		
76	Rab4 + CG42239	DRSC05667	-0.1	-0.3		
77	CG31661	DRSC00296	-0.4	-0.2		
78	Prp19 (Pre-RNA processing factor 19)	DRSC07434	1.2	2.5		
79	coro (Coronin)	DRSC05007	-0.3	-0.2		
80	CG9920	DRSC16578	0.2	0.1		
81	CG13814 (retired record)	DRSC10069	-0.2	-0.3		
82	CG14507	DRSC14859	-0.3	0.3		
83	CG8119	DRSC20083	-0.2	-0.3		
